Values of other authors in patent publication US10898451B2, “Methods of treating anti-NMDA receptor encephalitis with tramadol” (Board of Regents of the University of Texas System, priority 2018, dated 2021).

System: NMDARs
Details: cited from earlier work

In the case of `COc1cccc(C2(O)CCCCC2CN(C)C)c1` (centres unmarked) [tramadol, 2-(dimethylaminomethyl)-1-(3-methoxyphenyl)cyclohexanol], the “inhibition of NMDARs” value (K. Hara et al., Anesth. Analg. 100 (2005)) is given as “inhibit NMDARs at clinically relevant levels” and the “mode of NMDAR inhibition” value (Seifi and Kitchen 2016, Hara et al. 2005) is given as “non-competitively inhibits NMDARs in a concentration dependent manner”.
